Source: US20230285497A1, “ATOPIC […] WITH KAPPA OPIOID RECEPTOR AGONIST AS ADJUNCT TO TOPICAL CORTICOSTEROID” (Cara Therapeutics, Inc., priority 2022, published 2023)
At least one compound was matched to its structure with a doubt left.

By UniProt entry, the sequences of proteins in these tests, tags left out. Where a name states a change or a piece, a line headed by the entry shows the natural chain unless it says otherwise.
UniProt P41145: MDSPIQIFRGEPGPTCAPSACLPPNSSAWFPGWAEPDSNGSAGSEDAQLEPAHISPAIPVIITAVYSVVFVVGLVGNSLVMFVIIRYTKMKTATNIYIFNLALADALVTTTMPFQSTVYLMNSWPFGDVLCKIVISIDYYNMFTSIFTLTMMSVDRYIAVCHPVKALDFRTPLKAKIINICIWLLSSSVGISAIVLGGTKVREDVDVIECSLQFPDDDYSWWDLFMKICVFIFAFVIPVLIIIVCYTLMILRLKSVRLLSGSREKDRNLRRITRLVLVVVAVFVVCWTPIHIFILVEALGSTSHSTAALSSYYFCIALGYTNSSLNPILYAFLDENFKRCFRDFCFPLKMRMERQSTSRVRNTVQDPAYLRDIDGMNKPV

What was measured:
[1] = tested on: subjects with atopic dermatitis; assay: Phase 2 study, skin lesions by EASI; type: in vivo, human; conditions: Week 12
[2] = tested on: subjects with atopic dermatitis and moderate-to-severe AD-related pruritus; assay: Phase 2 dose-ranging study of oral Difelikefalin, pruritus by Itch Numerical Rating Scale (I-NRS); type: in vivo, human
[3] = tested on: Pruritus-related and Th2 pathway markers; assay: Phase 2 study, Skin Biopsy sub-study markers; type: in vivo, human; conditions: Skin Biopsy sub-study (n=40)
[4] = target: kappa opioid receptor (KOR) (Homo sapiens, UniProt P41145); assay: Selectivity / off-target activity of KOR agonist
[5] = tested on: MC903 AD mouse model; conditions: cited from earlier work
[6] = tested on: NC/Nga mice; assay: NC/Nga mouse model of naturally occurring atopic dermatitis, scratching; type: in vivo; conditions: 90-minute period of observation, compared to the vehicle group
[7] = tested on: subjects with mild-to-moderate AD; assay: Phase 2 study, quality of life (DLQI) and Sleep NRS; type: in vivo, human

CC(C)C[C@@H](NC(=O)[C@@H](Cc1ccccc1)NC(=O)[C@H](N)Cc1ccccc1)C(=O)N[C@H](CCCCN)C(=O)N1CCC(N)(C(=O)O)CC1 [Difelikefalin]
Percent Change in EASI from baseline ([1]; 0.25 mg): −54%
Percent Change in EASI from baseline ([1]; 0.5 mg): −44%
Percent Change in EASI from baseline ([1]; 1.0 mg): −39%
Percent Change in EASI from baseline ([1]; combined Difelikefalin): −46%
percent of subjects achieving at least a 4 point improvement of I-NRS ([2]; 0.25 mg oral twice daily, Week 12): 34%
percent of subjects achieving at least a 4 point improvement of I-NRS ([2]; 0.50 mg oral twice daily, Week 12): 33%
percent of subjects achieving at least a 4 point improvement of I-NRS ([2]; 1.0 mg oral twice daily, Week 12): 28%
percent of subjects achieving at least a 4 point improvement of I-NRS ([2]; All Doses / combined Difelikefalin group, Week 12, non-responder imputation analysis): 32%
treatment difference from placebo in change from baseline in weekly mean of daily I-NRS score (primary endpoint) ([2]; Intent to Treat (ITT) population, all 3 doses, Week 12): not statistically significant
LS mean treatment group difference in the weekly mean of the daily I-NRS score (Difelikefalin minus placebo) ([2]; subjects with mild-to-moderate AD (BSA<10%), combined Difelikefalin group, Week 12): −0.73
Pruritus-related and Th2 pathway markers [3]: downregulated
off-target activity [4]: no identified off-target activity
antipruritic effect [5]: rapid and significant antipruritic effect
decrease in scratching [6]: significant dose-dependent decrease in scratching
proportion of subjects who achieved a 3-point improvement in Sleep NRS [7]: numerical improvements
proportion of subjects who achieved a 4-point improvement in DLQI (quality of life) [7]: numerical improvements
